Assay [1] addresses T1, TATA-box binding protein (TBP) (mouse (endogenous in C2C12)) (UniProt P29037).
T1 sequence: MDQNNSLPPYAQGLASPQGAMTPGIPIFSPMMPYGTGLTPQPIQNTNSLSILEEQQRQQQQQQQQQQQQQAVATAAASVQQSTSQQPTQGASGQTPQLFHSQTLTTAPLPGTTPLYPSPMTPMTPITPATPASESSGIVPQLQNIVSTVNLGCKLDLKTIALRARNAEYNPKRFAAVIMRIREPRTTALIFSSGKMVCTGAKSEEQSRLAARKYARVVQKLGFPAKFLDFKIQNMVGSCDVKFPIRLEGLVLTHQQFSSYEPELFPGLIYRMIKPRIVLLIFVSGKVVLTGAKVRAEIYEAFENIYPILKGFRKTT
As to the kind of experiment: co-sedimentation; 10-55% glycerol gradient size fractionation of C2C12 myoblast and myotube nuclear extracts; BC buffer, 150 mM KCl, 45,000 rpm for 16 hr at 4°C; fractions analysed by immunoblot.

Sequences of proteins named here, by UniProt entry; tags and fusion partners are left off.
UniProt Q62311: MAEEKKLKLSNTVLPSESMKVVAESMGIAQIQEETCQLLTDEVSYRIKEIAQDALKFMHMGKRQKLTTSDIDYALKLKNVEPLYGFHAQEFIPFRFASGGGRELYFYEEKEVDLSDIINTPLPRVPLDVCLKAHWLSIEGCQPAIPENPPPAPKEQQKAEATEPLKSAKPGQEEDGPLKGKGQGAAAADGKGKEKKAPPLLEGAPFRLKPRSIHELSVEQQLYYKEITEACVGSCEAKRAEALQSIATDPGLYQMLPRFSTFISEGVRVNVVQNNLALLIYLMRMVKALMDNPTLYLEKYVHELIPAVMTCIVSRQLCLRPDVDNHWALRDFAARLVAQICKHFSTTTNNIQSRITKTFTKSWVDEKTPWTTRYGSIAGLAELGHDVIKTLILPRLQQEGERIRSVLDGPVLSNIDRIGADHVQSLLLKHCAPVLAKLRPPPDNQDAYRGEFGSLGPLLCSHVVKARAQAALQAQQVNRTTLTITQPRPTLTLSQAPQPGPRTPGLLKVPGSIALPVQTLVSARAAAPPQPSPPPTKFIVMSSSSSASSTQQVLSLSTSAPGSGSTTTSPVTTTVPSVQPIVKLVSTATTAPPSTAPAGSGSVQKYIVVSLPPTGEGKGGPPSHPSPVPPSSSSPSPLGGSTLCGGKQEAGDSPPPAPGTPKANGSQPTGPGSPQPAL

The target of assay [2] is T1, TATA-box binding protein (TBP) (mouse (endogenous in C2C12)). The assay can be described thus: co-IP; endogenous TBP immunoprecipitated with anti-TBP (3TF1-3G3) cross-linked to protein G magnetic beads from C2C12 myoblast and myotube nuclear extracts; BC buffer, 150 mM KCl, overnight at 4°C, with Benzonase; washes at 150 and 300 mM KCl; eluted with TBP peptide PA81; immunoblot.

No constants are given. Whether binding was seen depends on the method and setting. In cells and extracts the contact can be indirect. Some entries that bind do so weakly or less than the wild type.

Take “TAF6, core subunit of TFIID (from UniProt Q62311 1-678)”: the binding entry in assay [1] and in assay [2] was “binds” each time.

B1: TAF4, core subunit of TFIID (protein, UniProt E9QAP7 1-1042)
chain: MAAGSDLLDEVFFNSEVDEKVVSDLVGSLESQLAASAAHHHHLAPRTPELRAAAAGALGNHVVSGSPAGAAGAGPAASAEGAPAAAPEPPPAGRARPAGGGPRRPGSSSPRRLLVPAGPAPAPAKLRPLPEASAGPCPAAAAAAAATAAAVAGPDPAAAAPPAGPGASKPGPPGPPGPGAAQTLNGSAAPPTAPHAAPAVSPVNNGPAPPPAAGSVIQAAPAPAAPSPPAAPAPAAPPPPAPPAPVAPARPPGHPAAPAPPVSPAAAAAAAAAAAAAQNGAAPAPAAASGGAAGLGQPGAGAQGAKAEAPKPGPGPGPGPAAAAAAAGVAGGGAAGSVLLGPAMPGALPGPAPGTPAGLAKGAAAATPSLPRTPAATTGAIRATLTPTVLAPRLPQPPQNPTNIQNFQLPPGMVLVRSENGQLLMIPQQALAQMQAHAQAQPQSTMAPRPATPTGAPPVQISTVQAPGTPIIARQVTPTTIIKQVSQAQTTVQPTTTLQRSPGVQPQLVLGGSAQPASLGTATAVQTGTPQRTVPGASTTSTAATETMENVKKCKSFLSTLIKLASSGKQSTETAANVKDLVQNLLDGKIEAEDFTSRLYRELNSSPQPYLVPFLKRSLPALRQLTPDSAAFIQQSQQQQPPASQATTALTAVVLSSSVQRTAGKTAASVTSALQPPVISLTQPTQVGVGKQAPPTPLVIQQPPKPGALIRPPQVTLTQTPMVALRQPHNRIMLTTPQQIQLNQLQPVPVVKPTVLPGTKALSTVSAQAAAAQKNKLKEPGGGSFRDDDDINDVASMAGVNLSEESARILATNSELVGTLTRSCKDDTFLLPAPLQRRILEIGKKHGITELHPDVVSYVSHATQQRLQNLVEKISETAQQKNFSYKDDDRYEQASDVRAQLKFFEQLDQIEKQRKDEQEREILMRAAKSRSRQEDPEQLRLKQKAKEMQQQELAQMRQRDANLTALAAIGPRKKRKVDCTGPGSGAEGSGPGAAVPGGSGVGTPRQFTRQRITRVNLRDLIFCLENERETSHSLLLYKAFLK
Take B1: the binding entry in assay [1] and in assay [2] was “binds” in each case.

These data come from article PMC4775216.
